# PMC7819943, “Rice protein-binding microarrays: a tool to detect cis-acting elements near promoter regions in rice”
# Amino acid sequences for entries named in this document (tags omitted).
# UniProt Q0JBA9, entry or part of it: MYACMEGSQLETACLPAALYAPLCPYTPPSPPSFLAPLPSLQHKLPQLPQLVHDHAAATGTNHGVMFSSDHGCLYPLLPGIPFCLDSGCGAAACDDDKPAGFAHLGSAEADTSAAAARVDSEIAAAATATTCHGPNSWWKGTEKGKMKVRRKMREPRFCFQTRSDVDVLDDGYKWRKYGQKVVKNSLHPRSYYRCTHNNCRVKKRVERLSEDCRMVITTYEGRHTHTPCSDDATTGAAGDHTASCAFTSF
# The other results are listed elsewhere or left out.
# Target: OsWRKY34 (Oryza sativa, UniProt Q0JBA9 1-250)
# Assay: protein-binding microarray (RPBM); PBS, 2% BSA, 51.3 ng/ul salmon testes DNA, 50 uM zinc acetate, 200 nM TF, 25 C, 1 h; high values mean tight binding
# Details: protein: recombinant; tags: N-terminal polyhistidine and DsRed monomer fusion (pET32a); label: CyDye5-dUTP incorporated in the synthesized complementary strand; 3' TTTTT single-stranded linker to array surface; dsDNA, one strand shown
# Outline: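 Transcription factors were made in E. coli BL21-CodonPlus as N-terminal fusions to a polyhistidine tag and DsRed, then purified on Ni–NTA. After primer extension with Cy5-dUTP and blocking with 2% BSA, a custom Agilent array was exposed for 1 h at 25 °C to 200 nM protein in PBS, 2% BSA, salmon testes DNA and 50 µM zinc acetate. Washed arrays were scanned on an Axon 4000B, and the binding signal is per-feature fluorescence intensity in arbitrary units.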
row,Sequence,binding signal
1,GGGCCGGTGTTTTCGGTTTGTGCGGTGCGCGGCATGTGTACGGAGTCACCTAGTGCAG,8370 fluorescence intensity (a.u.)
2,AATGTTCAGTCTCAGGTATTTATGAGCCCTGGAGCCTTATCGGAGTCACCTAGTGCAG,8230 fluorescence intensity (a.u.)
3,GTCCTCAGCCACTACTGCCGTTGTTGACACGCCGTCCATTCGGAGTCACCTAGTGCAG,8430 fluorescence intensity (a.u.)
4,GGGAAGACGGTGGGGCGGGGACAGAGGTAGGGGAAGGAGGCGGAGTCACCTAGTGCAG,12600 fluorescence intensity (a.u.)
5,GGATCATCACTGTGAGCCTGTTGGTTTGTTTGTAGGAGTTCGGAGTCACCTAGTGCAG,11100 fluorescence intensity (a.u.)
6,TATTCCAGTCAACAGGCCACATTCTCCCACATGCCTTGATCGGAGTCACCTAGTGCAG,8700 fluorescence intensity (a.u.)
7,TGACAGTGTGATGTGCTTGTTCGCTCTGATTTGATTTTGGCGGAGTCACCTAGTGCAG,8050 fluorescence intensity (a.u.)
8,ATCTGCCGGGTTTCCTAACTTTTATGTTCCATTTCATTTTCGGAGTCACCTAGTGCAG,9270 fluorescence intensity (a.u.)
9,TATTCTATACTCCGGGATTGGCGTTTTCTTTTTCGCGGCACGGAGTCACCTAGTGCAG,9240 fluorescence intensity (a.u.)
10,CGACCGTTTTCAACCGTATGTATTAAGTAATGTTGTATTTCGGAGTCACCTAGTGCAG,9180 fluorescence intensity (a.u.)
11,AGTAGTATCATTACCACGCTTATCTGTACTTTGCAAGTTACGGAGTCACCTAGTGCAG,8140 fluorescence intensity (a.u.)
12,TGCTGACATCATCTTCGTAGCCTCAAACACACTCTAATTTCGGAGTCACCTAGTGCAG,10400 fluorescence intensity (a.u.)
13,ACTTAGAGCAACTTCAACAGACTCTTTATTTAGCTCTCCACGGAGTCACCTAGTGCAG,8030 fluorescence intensity (a.u.)
14,GTCTTCCTGCGCTGCCTCTCGCCGTCTCGCGGATCATCGTCGGAGTCACCTAGTGCAG,8240 fluorescence intensity (a.u.)
15,CACTACTACGTCGTCCAGTGTAGTTTGGGCCGTTTGTATTCGGAGTCACCTAGTGCAG,8810 fluorescence intensity (a.u.)
16,ATTTGGTTACGAAATCTTTTGATTCTACTGTCTGGATTTTCGGAGTCACCTAGTGCAG,8080 fluorescence intensity (a.u.)
17,GACTTTCCGACCCTAACTCAGTTTTAGCTTCCGCATAAAGCGGAGTCACCTAGTGCAG,11400 fluorescence intensity (a.u.)
18,AGATAAGGCCGCGCGCTCTCCACCACCACGGCCGCGAATGCGGAGTCACCTAGTGCAG,8440 fluorescence intensity (a.u.)
19,GGGTTCTTTCTGTAGTAGGGGTTTTTCTTTGTTTTCTCTTCGGAGTCACCTAGTGCAG,17700 fluorescence intensity (a.u.)
20,CGATTTCGCACGCCACCGTAAACTTCCTTTAGTTTTTTTTCGGAGTCACCTAGTGCAG,12700 fluorescence intensity (a.u.)
21,CCGAGTTTGGCGTTCTCTCCCAATTGTTTCTTCGATATTTCGGAGTCACCTAGTGCAG,13300 fluorescence intensity (a.u.)

row,Sequence,binding signal
1,TCGTGGTGGTGGTGGTGGTGGAAGTTAGGGTTTGAGGGTTCGGAGTCACCTAGTGCAG,17300 fluorescence intensity (a.u.)
2,CTCCGCGTCTAGCCGCGGGTGACGTCAGCACCACCACCATCGGAGTCACCTAGTGCAG,8620 fluorescence intensity (a.u.)
3,GAGCACACTGTAATGCAGCCAAATATATTGCTCTATTTCTCGGAGTCACCTAGTGCAG,9160 fluorescence intensity (a.u.)
4,GGGGATACCAGTATTGGGTACTCGGGATTTGGCCAACATTCGGAGTCACCTAGTGCAG,9160 fluorescence intensity (a.u.)
5,ACCCTCCTGCTGCGCCTTTGACCCGGCCATCCGTTCTCTCCGGAGTCACCTAGTGCAG,13400 fluorescence intensity (a.u.)
6,CGTCCTTGCCCTGGCCTTTGCGTGGCTCTTCACTTTCAGACGGAGTCACCTAGTGCAG,11800 fluorescence intensity (a.u.)
7,CGTTCCACCGCCGCGCCTCTTCCCCGCCCCGATCGGCTGCCGGAGTCACCTAGTGCAG,8810 fluorescence intensity (a.u.)
8,CTAAGTTTTGTTCATCGTGTTTTGGAAGCATTTGTTGATTCGGAGTCACCTAGTGCAG,8920 fluorescence intensity (a.u.)
9,CTTCTGCTTCTGGTTCTGGTTCGCCTTCCTAGTTCCTACCCGGAGTCACCTAGTGCAG,8330 fluorescence intensity (a.u.)
10,TGGTAACTGTCTGCACTACGATCTCTTAGTTCTGCCATCACGGAGTCACCTAGTGCAG,8080 fluorescence intensity (a.u.)
11,ACAGTTGAAATTTGAAGTACGCTGTGTTAGTAGTATAAGTCGGAGTCACCTAGTGCAG,8360 fluorescence intensity (a.u.)
12,TGTTCAGTTCATCATGCCTATTCATTTTGCTAACATTTGACGGAGTCACCTAGTGCAG,12700 fluorescence intensity (a.u.)
13,TGCGATTTCAGGCTGCCGGTTGGCCAATTTACTAATTAAACGGAGTCACCTAGTGCAG,9150 fluorescence intensity (a.u.)
14,ATATTTGACACCGTTGACTTTTTAGCACATGTTTGACTGTCGGAGTCACCTAGTGCAG,33000 fluorescence intensity (a.u.)
15,CTGCCTCACCCTAGCTTAGTACTTGCAACTTTGCTTTGCTCGGAGTCACCTAGTGCAG,8240 fluorescence intensity (a.u.)
16,ATGTCTTTGTGCTTTTTTTTGTTAGGAAAAAATCTTCTTTCGGAGTCACCTAGTGCAG,9400 fluorescence intensity (a.u.)
17,ACTTCATTCTCCCGTCTATAAATCCATCCACAGCTAGCCACGGAGTCACCTAGTGCAG,10100 fluorescence intensity (a.u.)
18,ACCGATGACTTTTGGCAAAACTTACAGTAAAACTGCTTATCGGAGTCACCTAGTGCAG,8850 fluorescence intensity (a.u.)
19,CATTGTGTGGTCCACTCAAGCACGTTTCCATCTCCCTTGACGGAGTCACCTAGTGCAG,9610 fluorescence intensity (a.u.)
20,GAGCCTGCTTTGTTTTCTTAATTTGTCATGATCTTTCATCCGGAGTCACCTAGTGCAG,10500 fluorescence intensity (a.u.)
21,TCGCTCGCTCGCCGTCCGCCGCCGCCGCCTTGCTCAGTTGCGGAGTCACCTAGTGCAG,8220 fluorescence intensity (a.u.)

# Given as tab-separated lines: entries from further up
row	Sequence	binding signal
7	CGTTCCACCGCCGCGCCTCTTCCCCGCCCCGATCGGCTGCCGGAGTCACCTAGTGCAG	8810 fluorescence intensity (a.u.)
11	ACAGTTGAAATTTGAAGTACGCTGTGTTAGTAGTATAAGTCGGAGTCACCTAGTGCAG	8360 fluorescence intensity (a.u.)
